This note sets out measurements from patent US4587233A (Board of Trustees of the Leland Stanford Junior University, priority 1983, dated 1986).

Some peptides are written in HELM: one residue between dots, names in brackets for other building blocks, links after the first $.

The series can be described thus: general procedure: Boc solid-phase peptide synthesis; Boc-Phe-resin; dicyclohexylcarbodiimide (DCC). The note with it: whole synthesis.

As to PEPTIDE1{F.M.R.F}$$$$V2.0, the isolated mass was determined as 0.23 g.
